## Primary screen of a compound library

Chains of the proteins cited; added tags and fusions are not shown.
UniProt I6X8D2, whole entry: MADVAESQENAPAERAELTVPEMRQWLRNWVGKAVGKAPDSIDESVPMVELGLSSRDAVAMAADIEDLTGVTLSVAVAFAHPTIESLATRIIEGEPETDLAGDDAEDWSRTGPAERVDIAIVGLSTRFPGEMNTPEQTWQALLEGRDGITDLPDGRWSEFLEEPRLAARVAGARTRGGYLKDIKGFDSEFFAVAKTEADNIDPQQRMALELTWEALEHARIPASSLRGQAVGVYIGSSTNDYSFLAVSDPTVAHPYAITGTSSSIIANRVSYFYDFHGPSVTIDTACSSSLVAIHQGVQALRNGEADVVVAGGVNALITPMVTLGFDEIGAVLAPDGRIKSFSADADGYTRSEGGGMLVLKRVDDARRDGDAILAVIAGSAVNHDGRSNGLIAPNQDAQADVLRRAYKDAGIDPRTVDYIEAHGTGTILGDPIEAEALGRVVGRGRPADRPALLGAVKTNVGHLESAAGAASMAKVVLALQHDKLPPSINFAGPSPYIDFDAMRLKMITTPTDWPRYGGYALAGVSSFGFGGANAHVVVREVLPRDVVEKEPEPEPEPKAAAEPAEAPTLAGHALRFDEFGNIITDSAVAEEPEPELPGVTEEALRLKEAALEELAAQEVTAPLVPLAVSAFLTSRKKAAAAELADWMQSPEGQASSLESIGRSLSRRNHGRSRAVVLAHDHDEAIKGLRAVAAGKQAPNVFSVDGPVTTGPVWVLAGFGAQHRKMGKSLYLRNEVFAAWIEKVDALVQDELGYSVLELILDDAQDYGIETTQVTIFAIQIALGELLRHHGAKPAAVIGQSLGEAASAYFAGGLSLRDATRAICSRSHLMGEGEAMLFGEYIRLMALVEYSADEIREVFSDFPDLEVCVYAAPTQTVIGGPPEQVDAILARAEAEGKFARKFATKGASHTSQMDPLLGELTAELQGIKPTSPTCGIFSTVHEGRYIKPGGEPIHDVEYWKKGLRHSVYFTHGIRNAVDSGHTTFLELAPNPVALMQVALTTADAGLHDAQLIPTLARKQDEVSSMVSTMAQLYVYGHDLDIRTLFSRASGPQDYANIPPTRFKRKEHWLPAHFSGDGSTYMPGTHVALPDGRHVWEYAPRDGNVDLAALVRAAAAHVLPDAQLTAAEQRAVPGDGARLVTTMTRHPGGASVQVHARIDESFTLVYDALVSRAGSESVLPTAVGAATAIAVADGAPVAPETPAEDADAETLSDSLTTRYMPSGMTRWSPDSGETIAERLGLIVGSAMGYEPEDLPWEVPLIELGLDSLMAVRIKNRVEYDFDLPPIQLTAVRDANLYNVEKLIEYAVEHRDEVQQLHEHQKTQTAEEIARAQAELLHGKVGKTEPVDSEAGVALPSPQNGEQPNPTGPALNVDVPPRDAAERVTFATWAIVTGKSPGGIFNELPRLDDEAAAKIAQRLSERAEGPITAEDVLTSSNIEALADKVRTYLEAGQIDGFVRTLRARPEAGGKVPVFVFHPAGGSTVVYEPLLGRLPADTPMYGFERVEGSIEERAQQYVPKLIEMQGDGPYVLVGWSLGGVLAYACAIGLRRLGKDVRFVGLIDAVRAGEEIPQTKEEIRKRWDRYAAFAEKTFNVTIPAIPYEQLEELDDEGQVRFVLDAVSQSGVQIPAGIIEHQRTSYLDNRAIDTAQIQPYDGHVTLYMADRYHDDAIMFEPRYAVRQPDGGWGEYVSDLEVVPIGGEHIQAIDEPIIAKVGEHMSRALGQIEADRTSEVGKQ

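Polyketide synthase Pks13, Mycobacterium tuberculosis (UniProt I6X8D2). Enzyme assay of the thioesterase domain of polyketide synthase 13; the read-out is not stated. Compounds at 30 µM. Higher reads as stronger inhibition (inferred from which compounds were picked for retests). About 67,000 compounds were tested under these conditions; 0.46% (about 300) showed 50% or more at least once.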

Results are given as percent effect.
The controls that fix the scale are not given in the record; negative values are as filed.
Compounds were drawn at random from those tested, without regard to their results.

compound	percent effect
CC(=O)NCCc1ccc(S(=O)(=O)N(C)C(C)CC(C)C)s1 (stereo not given)	-12.71
Cc1n[nH]c(C)c1CCN(C)C(=O)c1ccc(CN2CCCCC2)cc1	-17.49
Cc1cc2n(n1)CC(CNC1CCN(Cc3ccncc3)CC1)CN2 (stereo not given)	-31.49
CS(=O)(=O)CCCNC1CCCN(Cc2noc(C3CC3)n2)C1 (stereo not given)	-25.92
CCN(Cc1ccncc1)c1cc(C2CCCNC2)nc(C)n1 (stereo not given)	-6.424
O=C(CN1CCOC(CNc2cccnn2)C1)NCc1ccccn1 (stereo not given)	-20.58
Cc1noc(C)c1CN1CCOCC12CCN(c1nccs1)CC2	-7.064
CC(C)C(CCO)NC(=O)Nc1ccc(-c2csnn2)cc1 (stereo not given)	-10.2
COCCn1ccc(NC(=O)Nc2cccnc2)n1	-26.93
CN(C)c1no[n+]([O-])c1-c1ccccc1	-24.28
CC(Cn1ccnc1)NC(=O)N(C)Cc1ccc2c(c1)OCCO2 (stereo not given)	-44.04
COc1cc(C)nc(N2CCN(C(=O)CCc3ccsc3)CC2)n1	-25.89
O=C(CC1CCCC1)N1CCCC1c1ccc(CN2CCOCC2)cn1 (stereo not given)	1.595
CNC(=O)c1cc2c(nc1NCC1CC1)CCN(S(=O)(=O)C1CC1)CC2	-32.94
O=C(c1ccc(O)c(Cl)c1)N1C[C@@H](CN2CCCCCC2)[C@@H](CO)C1	6.528
O=C(C1CCC1)N1CCC2(CCNCC2)C1	-50.25
O=c1[nH]nc(SCC2CCCO2)n1C1CC1 (stereo not given)	-26.87
CCc1ccc(CN2CCN(C)C3(CCC(=O)N(CC4CC4)CC3)C2)o1 (stereo not given)	2.96
CC1CN(C(=O)Nc2cccc(CN3CCOC3=O)c2)CCO1 (stereo not given)	-5.234
CC(NC(=O)NCCCN1CCc2ccccc2C1)c1nncn1C (stereo not given)	-17.81
CCN1CCC(CNC(=O)C2(c3cccc(C)c3)CCCCC2)CC1	-15.22
Cc1noc(-c2ccc(N[C@H]3CCCCNC3=O)nc2)n1	-17.91
Cc1nn(C)c2ncc(C(=O)N3CCNC(=O)C3)cc12	-17.64
Cc1cc(C)nc(C2CCN(C(=O)CCn3nnc4ccccc43)C2)n1 (stereo not given)	-6.165
Cc1ccc(CN(C)C(=O)c2scnc2C)cc1	-8.255
NC(=O)c1ccc(-n2ccnc2-c2cccc(O)c2)cc1N1CCCC1	-24.26
CN1CCN(C(=O)N2C[C@H]3CC[C@@H]2CN(Cc2ccccc2)C3)CC1	7.304
COc1ccccc1CCNC(=O)N(C)C(C)CS(C)(=O)=O (stereo not given)	5.621
CC(=O)NC[C@]1(O)CCN(C(=O)c2ccc(C)c(F)c2)C[C@H]1O	-6.284
COc1cccc2c1OCC(C(=O)NCc1nc3c(s1)CCCC3)C2 (stereo not given)	-18.62
O=C(CN1CCCC1c1nc(-c2ccccn2)no1)N1CCOCC1 (stereo not given)	-30.03
CCc1c(C)nn(CC(=O)NC(C)c2n[nH]c(C)n2)c1C (stereo not given)	4.923
CCCc1nc(C)c(C(=O)NS(=O)(=O)c2ccc(C#N)cc2)s1	-9.754
CNS(=O)(=O)CC(=O)N(C1CC1)C1Cc2ccccc2C1	15.98
CN(C)Cc1noc2c1CN(Cc1ccc[nH]1)CC2	8.966
CC(C)CSCCCNC(=O)C1CCOCC1	-32.54
CC1CCCN1Cc1cccc(C(=O)Nc2ccc3[nH]c(=O)oc3c2)c1 (stereo not given)	6.74
Cc1cc(CN2CCCC(Cn3cncn3)C2)no1 (stereo not given)	-5.839
CCCc1nc(C)c(CNc2nc(C)nc3oc(C)nc23)s1	-32.61
COCCN(Cc1cccc(C#N)c1)Cc1nc(C)no1	-19.53
CN(C(=O)NCc1ccncc1)C1CCCN(c2ccccc2)C1=O (stereo not given)	-9.847
CC(C)(O)CCc1ccc(C(=O)NCCC2CCOC2)cc1 (stereo not given)	0.5938
CC(C)c1nnsc1CNC(=O)C1CCCN(C(=O)N(C)C)C1 (stereo not given)	-30.88
CNc1ccnc(N2CCCC(C(=O)c3ccccn3)C2)n1 (stereo not given)	-28.28
c1cnn(CC2CN(Cc3noc(C4CC4)n3)CCO2)c1 (stereo not given)	-11.04
CCN(Cc1ccoc1)C(=O)NC1CCN(CC2CC2)C1 (stereo not given)	-35.41
CN1CC[C@H](N(Cc2ccccc2)C2COC2)C[C@H](O)C1	-0.6695
CC(=O)c1ccc(N2CCN(C(=O)NCc3cc[nH]n3)CC2)cc1	13.55
Cc1cccnc1CN1CCN(C[C@]2(O)CCCN3CCCC[C@@H]32)CC1	-13.08
Cc1cc(Cc2cccc(C(F)(F)F)c2)cc(C2CCCNC2)n1 (stereo not given)	-6.35
O=C(NCC(CO)Cc1ccc(Cl)cc1)c1ccncc1Cl (stereo not given)	-11.05
CC(OCC(F)(F)F)C(=O)NCCN(C)C (stereo not given)	1.206
O=c1c(NCCc2ccc(O)cc2)c(NCc2ccncc2)c1=O	2.263
CCN1C[C@@H]2CN(C(=O)c3ccsc3)C[C@@H]2C1=O	-24.87
Cc1nc(C(=O)N(C)C)nn1-c1ccccc1C(C)C	-21.52
COc1c(CNC2CCN(C(=O)C3CC3)CC2)c(C(C)C)nn1C	-7.749
CN(C)CC1CSCCCN1C(=O)Nc1ccc(C(C)(C)C)cc1 (stereo not given)	-17.58
CCn1cc(CNC2CC(=O)N(CCc3cccc(Cl)c3)C2)cn1 (stereo not given)	-7.708
C1CCC(CNC2CCSCC2)(N2CCOCC2)CC1	9.852
N#Cc1ccnc(NCc2cc3n(n2)CCCN(C(=O)C2CCC2)C3)c1	19.25
CN(C)C(C(=O)N1CCCN(C(=O)C2CCC2)CC1)c1ccccc1F (stereo not given)	-14.79
Cc1cc(=O)[nH]c(SC(C)C(=O)N2CCCN(C3CCCC3)CC2)n1 (stereo not given)	-5.117
CCc1n[nH]c(C2CN(Cc3ncc(CC)o3)CCO2)n1 (stereo not given)	-6.418
Cc1cccc(N2Cc3nc(=O)[nH]n3C2=O)c1	-19.72
Cc1nc2c(c(N3C[C@@H](C)[C@@](C)(O)C3)n1)CCC2	-11.6
O=C(CCc1ccccc1F)N1CCC(Nc2cccnn2)CC1	-16.65
CCc1ncc2c(n1)CN(Cc1nc(-c3ccco3)oc1C)CC2	4.618
O=S(=O)(CCCN1CCOC(Cn2cccn2)C1)c1ccccc1 (stereo not given)	-21.23
CCc1nnc2n1CCN(C(=O)c1ccccc1OCC1CC1)C2	-28.15
CCN1CCN(S(=O)(=O)N2CCCCCC2)[C@H]2CS(=O)(=O)C[C@H]21	-10.12

4 of the entries, repeated:

Result for N#Cc1ccnc(NCc2cc3n(n2)CCCN(C(=O)C2CCC2)C3)c1 was 19.25%.
Result for CN(C(=O)NCc1ccncc1)C1CCCN(c2ccccc2)C1=O (stereo not given) was -9.847%.
Result for CN(C)CC1CSCCCN1C(=O)Nc1ccc(C(C)(C)C)cc1 (stereo not given) was -17.58%.
Result for CC(C)C(CCO)NC(=O)Nc1ccc(-c2csnn2)cc1 (stereo not given) was -10.2%.

From ChEMBL document CHEMBL3988442, “University of Dundee, Small-Polar-MMV Screening Library” (2021).